Data from PubChem BioAssay AID1439 (NMMLSC, 2008).
In all, about 220,000 compounds went through this assay and about 770 (0.35%) were called active. Inconclusive means that the source gave no clear call. Such entries were picked first, then a sample of the others. Cut-off read from the data, not from the text of the source: active = binding response below about 49% or above about 150%; inconclusive = no clear call, values can overlap the other calls; inactive = in between.

Protein sequences, listed by entry. Tags and fused reporters are not part of them.
UniProt P09471, whole entry, looked up: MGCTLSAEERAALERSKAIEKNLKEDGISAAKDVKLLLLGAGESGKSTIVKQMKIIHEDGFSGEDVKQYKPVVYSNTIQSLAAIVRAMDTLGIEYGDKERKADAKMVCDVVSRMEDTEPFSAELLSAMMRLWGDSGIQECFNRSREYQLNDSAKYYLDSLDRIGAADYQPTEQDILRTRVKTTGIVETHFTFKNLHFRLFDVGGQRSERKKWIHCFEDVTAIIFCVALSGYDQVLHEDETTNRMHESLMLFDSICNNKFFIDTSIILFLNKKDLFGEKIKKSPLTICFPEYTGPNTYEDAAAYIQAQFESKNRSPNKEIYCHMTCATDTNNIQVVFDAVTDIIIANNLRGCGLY

These compounds were tested against Guanine nucleotide-binding protein G(o) subunit alpha (Homo sapiens) (UniProt P09471) (assay: RGS7-Galphao binding modulators, primary screen, biochemical, multiplexed bead flow cytometry (AID 1439;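 note: fluorescent Galphao held in activated GDP-AlF4 state binding bead-coupled RGS7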)). Conditions: at 10 µM, actives lie on both sides.

Row | SMILES | binding response (% of control)
1 | FC(F)(F)c1ccc(NC(=S)NCc2ccccc2)cc1 | inactive: 99.5%
2 | Cc1ccc(/C=N/NC(=O)c2cccnc2)s1 | inconclusive: 93.4%
3 | O=C(Nc1ccccn1)c1ccc2c(c1)OCO2 | inconclusive: 123%
4 | Cc1nn(-c2ccccc2)c(C)c1-c1cc(C(=O)N/N=C/c2ccc(O)cc2)[nH]n1 | inconclusive: 120%
5 | Nc1n[nH]c(-c2ccc([N+](=O)[O-])cc2[N+](=O)[O-])n1 | inactive: 104%
6 | COc1cc([N+](=O)[O-])cc(/C=N\NC(=O)C2COc3ccccc3O2)c1O (stereo not given) | inconclusive: 132%
7 | COc1cc(OC)c(N(C)S(=O)(=O)c2cccc(C(=O)OCC(=O)c3c[nH]c4ccccc34)c2)cc1Cl | inactive: 92.2%
8 | CN(C)S(=O)(=O)c1ccc(NC(=O)Cn2ccsc2=N)cc1 | inconclusive: 99.4%
9 | CC(C)Sc1nsc2nc(=O)c(/C=C3\C=Nc4ccccc43)c(N)n12 | inconclusive: 113%
10 | COc1ccc([C@H]2CC(=O)c3c(O)cc(O)cc3O2)cc1O | inconclusive: 826%
11 | CCNC(=O)NC(=O)C(C)OC(=O)c1cccn1C (stereo not given) | inconclusive: 104%
12 | O=c1c2ccccc2c(C=Nc2cccc(O)c2)c(O)n1-c1ccc2c(c1)OCO2 | inactive: 92.6%
13 | COC(=O)[C@@H](Cc1c[nH]c2ccccc12)NC(=O)c1cc(=O)[nH]c2ccccc12 | inconclusive: 106%
14 | Cc1ccc(/C([O-])=C(/C(=S)NCc2ccc3c(c2)OCO3)[n+]2ccc(N(C)C)cc2)c(C)c1 | inconclusive: 107%
15 | NC(=O)NC(=O)COC(=O)c1ccccc1OCc1ccc(F)cc1 | inconclusive: -256%
16 | COc1ccc(N2CCC(CNC(=S)Nc3c(C)cc(C)cc3C)C2)cc1 (stereo not given) | inconclusive: 96.3%
17 | COc1ccc(S(=O)(=O)Nc2ccc(N3CCOCC3)nc2)cc1 | inconclusive: 91%
18 | CCS(=O)(=O)c1ccc2oc(SCC(=O)Nc3ccc(OC)cc3OC)nc2c1 | inconclusive: 89.8%
19 | O=C(NC12CC3CC(CC(C3)C1)C2)N1CCN(C(=O)c2ccco2)CC1 | inconclusive: 108%
20 | Cc1ccc(OCC(=O)Nc2ccc(N3CCN(C(=O)c4ccco4)CC3)cc2)cc1 | inactive: 97%

Row | SMILES | binding response (% of control)
21 | C=CCNC(=S)N1CCN(Cc2ccccc2)CC1 | inactive: 103%
22 | Nc1nc(NCc2ccco2)nc(Nc2cccc(F)c2)c1[N+](=O)[O-] | inconclusive: 66.7%
23 | COC(C(=O)Nc1c(F)cccc1F)c1ccccc1 (stereo not given) | inconclusive: 105%
24 | CC(C)c1ccc(NC(=S)NC2CCCCCC2)cc1 | inconclusive: 130%
25 | N#Cc1cc2c(nc1S(=O)(=O)Cc1ccccc1)CCCC2 | inconclusive: 98.5%
26 | O=[N+]([O-])c1ccc(O)c(/C=N/NC(=S)Nc2ccc(Cl)cc2Cl)c1 | inconclusive: 109%
27 | Cc1nnc(N2CCOCC2)c2nn(-c3ccccc3)c(C)c12 | inactive: 146%
28 | COc1ccc(/C=N/OC(=O)c2ccc(Cl)cc2)c(Cl)c1OC | inconclusive: 119%
29 | COc1nc2c(c(-c3cc(Br)cs3)c1C#N)Cc1ccccc1-2 | inconclusive: 111%
30 | CC(C)CNS(=O)(=O)c1ccc(CCC(=O)N2CCC(C(N)=O)CC2)cc1 | inactive: 96.5%
31 | N#CCCCCN1CCCC1 | inconclusive: 107%
32 | C=CCNC(=S)NCc1ccccc1 | inconclusive: 17.1%
33 | CC1S/C(=N/N=C/c2ccco2)N(Cc2ccccc2)C1=O (stereo not given) | inconclusive: 85.5%
34 | N=c1n(CCN2CCCCC2)c2ccccc2n1CC(=O)c1cccs1 | inconclusive: 97.2%
35 | c1ccc(Cc2nnc3n2N=C(c2ccccc2)CS3)cc1 | inconclusive: 107%
36 | CCCCNC(=O)Nc1ncn[nH]1 | inconclusive: 222%
37 | O=C(CC(=O)N/N=C/c1ccc(F)cc1)N/N=C/c1ccc(F)cc1 | inconclusive: 91.3%
38 | Cc1cc(C)c2nc3nc(C)c(C)cc3c(N)c2c1 | inactive: 99.2%
39 | CC(C)OCCCNC(=O)C(=O)N/N=C/c1ccc(OCc2ccccc2)cc1 | inconclusive: 45.3%
40 | N#C/C(=N\Nc1ccc(S(=O)(=O)N2CCOCC2)cc1)C(N)=S | inconclusive: 107%

Looked up by structure from above, 4 records:
Row | SMILES | binding response (% of control)
25 | N#Cc1cc2c(nc1S(=O)(=O)Cc1ccccc1)CCCC2 | inconclusive: 98.5%
24 | CC(C)c1ccc(NC(=S)NC2CCCCCC2)cc1 | inconclusive: 130%
27 | Cc1nnc(N2CCOCC2)c2nn(-c3ccccc3)c(C)c12 | inactive: 146%
23 | COC(C(=O)Nc1c(F)cccc1F)c1ccccc1 (stereo not given) | inconclusive: 105%

(listing goes on)

Row | SMILES | binding response (% of control)
41 | NNC(=O)c1nc(-c2cccc(-n3cccc3)c2)no1 | inconclusive: 87.8%
42 | Cc1ccccc1Oc1nc(-c2ccccn2)nc2ccccc12 | inconclusive: 60.4%
43 | Cn1nc(C(F)(F)F)c2cc(C(=O)Nc3ccc(F)cc3)sc21 | inconclusive: 130%
44 | CC1CCC2C(=O)N(c3ccc(Cc4ccncc4)cc3)C(=O)C2C1 (stereo not given) | inactive: 94.2%
45 | CC(=O)Nc1cccc(C(=O)Nc2nc(C)cs2)c1 | inconclusive: 94.7%
46 | O=C(N/N=C/C=C/c1ccco1)c1cccs1 | inconclusive: 110%
47 | Cc1nnsc1C(=O)N1CCC(C(=O)c2ccccc2)CC1 | inconclusive: 122%
48 | NC(CCCCCP(=O)(c1ccccc1)c1ccccc1)C(=O)O (stereo not given) | inconclusive: 79.3%
49 | Cc1nc(C(=O)NNC(=O)c2ccc(C(F)(F)F)cc2)cs1 | inconclusive: 95.5%
50 | CC(C)(C)n1nc2c(c1NC(=O)Cc1ccccc1)CS(=O)(=O)C2 | inactive: 93.2%
51 | O=C(CN1C(=O)COc2ccc(S(=O)(=O)N3CCOCC3)cc21)NCc1ccccn1 | inconclusive: 106%
52 | O=C(CN1CCN(c2ccccc2O)CC1)Nc1cccnc1Cl | inconclusive: 102%
53 | CC(=O)Nc1ccc(Oc2ccc(NC(C)=O)c(NC(C)=O)c2)cc1 | inconclusive: 92%
54 | Clc1ccccc1/C=C/c1nc(-c2ccccn2)no1 | inconclusive: 87.3%
55 | N#CCOC(=O)c1c2c(nc3ccccc13)CCC2 | inactive: 104%
56 | CN1CCN(c2cc3c(cc2F)c(=O)c(C(=O)O)cn3CCF)CC1 | inconclusive: -1.84%
57 | Cn1nc2c3ccccc3n(Cc3ccc(F)cc3)c2nc1=S | inconclusive: 92.8%
58 | O=C(COC(=O)/C=C/c1ccco1)NCc1ccccc1 | inconclusive: 112%
59 | CCOC(=O)c1nc(C)n(-c2ccc(Cl)cc2Cl)n1 | inactive: 102%
60 | CCOc1ccccc1C(=O)N[C@H](C(=O)OCc1cc([N+](=O)[O-])cc2c1OCOC2)C(C)C | inactive: 102%
